Paper PMC8408929, “Influence of osmolality on gastrointestinal fluid volume and drug absorption: potential impact on oral salt supplementation” (Journal of Pharmaceutical Health Care and Sciences, 2021)

Tested on: rat intestine (jejunum, ileum and colon)
Experiment: in situ rat intestinal closed loop method
Conditions: 30 min
Protocol: The in situ rat intestinal closed loop method was carried out as described previously. Male Wistar rats (7–8 weeks old; 250 ± 20 g body weight) were fasted overnight and anesthetized by intraperitoneal injection of a triple anesthetic combination (medetomidine, midazolam and butorphanol). The abdominal cavity was opened and an intestinal loop (jejunum, 10 cm; ileum, 10 cm; colon, 7 cm) was made by cannulation into both ends of the jejunum, ileum and colon with silicone tubing (i.d., 3 mm). The intestinal contents were washed out through the cannulas with saline. […] One mL of test compound solution (10 μM) was introduced into the intestinal loop and both ends of the loop were ligated. At the designated times (30 min), test compound solution in the loop was collected by flushing with air (for measuring the luminal concentration of test compound, Cout), and then made up to 10 mL with buffer solution (for measuring the amount of test compound, Xout). The volume of luminal water (mL) in each segment of intestine was calculated using the following equation: 1 Vwater=Xout/Cout where Vwater (mL) is the water volume in each segment of intestine, Cout is the luminal concentration of test compound (μM), and Xout is the amount of test compound (μmol). The fraction absorbed of test compound was calculated from the remaining amount of test compound in each intestinal loop. Final results were normalized to the surface area calculated from the radius and length of each segment of intestine. The radii of the small and large intestines reported by Fagerholm et al. were used (0.178 cm and 0.252 cm, respectively).
Concentrations of FD-4 were measured with a microplate fluorescence reader (VarioskanTM Flash 2.4; Thermo Fisher Scientific Inc., Kanagawa, Japan) at excitation/emission wavelengths of 492/515 nm.
An Agilent Eclitse plus (C18, 50 × 2.1 mm, 5 μm) was used as the analytical column. […] Analyst software version 1.4.2 (AB SCIEX) was used for data manipulation.

## fluorescein isothiocyanate-dextran 4000 [FD-4]
colon, FD-4 (10 μM) in hyperosmotic solution (10% NaCl)
  remaining fraction of water: 146 ± 3%
colon, FD-4 (10 μM) in purified water
  remaining fraction of water: 34.6 ± 3.7%
ileum, FD-4 (10 μM) in hyperosmotic solution (10% NaCl)
  remaining fraction of water: 142 ± 15%
ileum, FD-4 (10 μM) in purified water
  remaining fraction of water: 74.4 ± 3.8%
jejunum, FD-4 (10 μM) in hyperosmotic solution (10% NaCl)
  remaining fraction of water: 181 ± 4%
jejunum, FD-4 (10 μM) in purified water
  remaining fraction of water: 67.9 ± 2.0%
